Here are results for 5 substances from doi:10.1101/2020.11.14.382416.

By UniProt entry, the sequences of proteins in these tests, tags left out. Where a name states a change or a piece, a line headed by the entry shows the natural chain unless it says otherwise.
UniProt Q9Z148: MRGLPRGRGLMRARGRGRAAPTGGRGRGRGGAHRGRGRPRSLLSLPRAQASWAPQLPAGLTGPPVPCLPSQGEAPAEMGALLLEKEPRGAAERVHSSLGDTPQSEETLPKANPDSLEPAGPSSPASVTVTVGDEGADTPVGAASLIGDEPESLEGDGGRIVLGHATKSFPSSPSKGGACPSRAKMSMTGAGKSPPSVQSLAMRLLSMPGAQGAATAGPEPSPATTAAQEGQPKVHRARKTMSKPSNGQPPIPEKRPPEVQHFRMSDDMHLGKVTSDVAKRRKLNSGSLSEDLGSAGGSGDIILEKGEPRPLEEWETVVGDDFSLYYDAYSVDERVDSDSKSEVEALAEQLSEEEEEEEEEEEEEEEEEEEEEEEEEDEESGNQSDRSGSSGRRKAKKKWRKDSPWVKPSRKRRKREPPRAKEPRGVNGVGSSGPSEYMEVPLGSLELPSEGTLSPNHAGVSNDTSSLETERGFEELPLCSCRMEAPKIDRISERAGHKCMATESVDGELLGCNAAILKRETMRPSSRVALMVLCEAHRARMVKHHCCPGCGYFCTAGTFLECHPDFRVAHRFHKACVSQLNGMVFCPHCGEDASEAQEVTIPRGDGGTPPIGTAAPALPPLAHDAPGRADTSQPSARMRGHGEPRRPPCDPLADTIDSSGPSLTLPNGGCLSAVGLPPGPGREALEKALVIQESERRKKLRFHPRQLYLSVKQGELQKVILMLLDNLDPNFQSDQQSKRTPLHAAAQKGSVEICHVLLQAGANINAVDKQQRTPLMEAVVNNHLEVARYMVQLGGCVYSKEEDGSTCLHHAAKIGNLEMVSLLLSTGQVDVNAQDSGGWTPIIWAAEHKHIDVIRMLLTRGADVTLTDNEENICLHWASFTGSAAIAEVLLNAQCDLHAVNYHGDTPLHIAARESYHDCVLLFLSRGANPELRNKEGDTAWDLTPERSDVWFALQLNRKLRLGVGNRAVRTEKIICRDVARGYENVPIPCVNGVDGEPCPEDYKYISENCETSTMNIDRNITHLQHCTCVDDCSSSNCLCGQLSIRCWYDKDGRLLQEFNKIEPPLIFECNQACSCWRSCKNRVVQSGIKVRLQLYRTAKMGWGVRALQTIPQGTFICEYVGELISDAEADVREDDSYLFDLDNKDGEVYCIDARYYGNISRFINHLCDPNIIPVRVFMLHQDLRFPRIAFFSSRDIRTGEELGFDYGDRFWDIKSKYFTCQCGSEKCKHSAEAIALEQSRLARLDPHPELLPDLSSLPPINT
UniProt Q86U44: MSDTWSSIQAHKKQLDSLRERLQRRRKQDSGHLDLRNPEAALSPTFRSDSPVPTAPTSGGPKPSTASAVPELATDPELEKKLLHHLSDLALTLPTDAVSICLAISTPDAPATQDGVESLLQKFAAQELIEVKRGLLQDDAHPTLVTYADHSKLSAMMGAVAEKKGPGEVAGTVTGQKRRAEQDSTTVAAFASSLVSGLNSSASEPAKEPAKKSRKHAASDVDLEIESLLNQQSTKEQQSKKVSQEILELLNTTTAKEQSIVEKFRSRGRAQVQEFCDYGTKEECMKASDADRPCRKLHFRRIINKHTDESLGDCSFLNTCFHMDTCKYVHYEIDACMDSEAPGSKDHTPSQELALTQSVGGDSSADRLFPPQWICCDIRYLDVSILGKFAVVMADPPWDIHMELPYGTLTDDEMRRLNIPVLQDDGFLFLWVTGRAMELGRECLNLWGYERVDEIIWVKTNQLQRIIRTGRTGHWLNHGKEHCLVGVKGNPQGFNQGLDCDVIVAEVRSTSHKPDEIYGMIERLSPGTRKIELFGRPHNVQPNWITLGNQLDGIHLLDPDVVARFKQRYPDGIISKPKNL
UniProt Q96KQ7: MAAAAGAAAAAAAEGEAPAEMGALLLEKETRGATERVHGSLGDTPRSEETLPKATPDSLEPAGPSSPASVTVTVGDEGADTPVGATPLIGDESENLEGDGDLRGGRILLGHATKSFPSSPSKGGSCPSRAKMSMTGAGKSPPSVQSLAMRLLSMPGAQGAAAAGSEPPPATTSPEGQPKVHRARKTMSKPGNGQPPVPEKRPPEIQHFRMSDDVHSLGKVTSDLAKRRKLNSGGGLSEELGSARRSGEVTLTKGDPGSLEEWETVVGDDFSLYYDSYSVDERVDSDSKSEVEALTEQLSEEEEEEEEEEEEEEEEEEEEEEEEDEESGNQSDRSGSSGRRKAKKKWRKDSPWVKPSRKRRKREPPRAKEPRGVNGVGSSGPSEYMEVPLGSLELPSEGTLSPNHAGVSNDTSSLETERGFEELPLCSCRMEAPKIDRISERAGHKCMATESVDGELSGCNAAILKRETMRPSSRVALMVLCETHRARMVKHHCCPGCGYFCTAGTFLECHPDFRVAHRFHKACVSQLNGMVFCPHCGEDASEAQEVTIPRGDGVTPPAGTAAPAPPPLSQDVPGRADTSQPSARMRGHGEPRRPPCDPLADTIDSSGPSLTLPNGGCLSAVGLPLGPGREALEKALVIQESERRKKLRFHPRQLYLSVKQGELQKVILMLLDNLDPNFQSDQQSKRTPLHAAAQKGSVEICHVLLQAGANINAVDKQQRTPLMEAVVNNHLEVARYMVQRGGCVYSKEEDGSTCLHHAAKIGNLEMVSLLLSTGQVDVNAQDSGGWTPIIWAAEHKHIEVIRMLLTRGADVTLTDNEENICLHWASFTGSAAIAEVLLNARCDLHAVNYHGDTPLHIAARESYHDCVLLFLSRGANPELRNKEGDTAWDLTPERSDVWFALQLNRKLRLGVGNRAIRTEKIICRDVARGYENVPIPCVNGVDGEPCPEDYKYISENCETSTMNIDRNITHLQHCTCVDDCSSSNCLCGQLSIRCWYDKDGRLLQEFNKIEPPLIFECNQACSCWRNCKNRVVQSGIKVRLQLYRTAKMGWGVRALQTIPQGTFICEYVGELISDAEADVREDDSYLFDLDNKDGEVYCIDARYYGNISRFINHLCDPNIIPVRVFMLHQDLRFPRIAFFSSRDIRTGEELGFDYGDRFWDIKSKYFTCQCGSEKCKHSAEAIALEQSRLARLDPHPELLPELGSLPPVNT
UniProt Q8C3P7: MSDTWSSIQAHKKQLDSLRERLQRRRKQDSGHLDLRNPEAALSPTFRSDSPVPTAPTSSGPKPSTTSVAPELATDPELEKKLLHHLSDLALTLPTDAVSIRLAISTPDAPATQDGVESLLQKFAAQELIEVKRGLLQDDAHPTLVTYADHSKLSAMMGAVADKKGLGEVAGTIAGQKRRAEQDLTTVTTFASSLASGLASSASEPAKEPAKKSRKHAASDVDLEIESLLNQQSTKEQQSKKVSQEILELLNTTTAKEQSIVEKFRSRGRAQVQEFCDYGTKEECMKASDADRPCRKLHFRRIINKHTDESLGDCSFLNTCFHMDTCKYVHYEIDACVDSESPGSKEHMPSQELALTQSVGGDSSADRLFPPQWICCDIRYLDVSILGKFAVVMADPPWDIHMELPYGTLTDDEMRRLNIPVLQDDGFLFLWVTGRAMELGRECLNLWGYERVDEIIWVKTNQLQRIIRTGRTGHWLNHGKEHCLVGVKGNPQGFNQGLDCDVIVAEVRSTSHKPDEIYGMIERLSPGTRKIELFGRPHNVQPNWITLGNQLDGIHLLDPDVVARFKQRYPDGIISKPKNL
UniProt P55884: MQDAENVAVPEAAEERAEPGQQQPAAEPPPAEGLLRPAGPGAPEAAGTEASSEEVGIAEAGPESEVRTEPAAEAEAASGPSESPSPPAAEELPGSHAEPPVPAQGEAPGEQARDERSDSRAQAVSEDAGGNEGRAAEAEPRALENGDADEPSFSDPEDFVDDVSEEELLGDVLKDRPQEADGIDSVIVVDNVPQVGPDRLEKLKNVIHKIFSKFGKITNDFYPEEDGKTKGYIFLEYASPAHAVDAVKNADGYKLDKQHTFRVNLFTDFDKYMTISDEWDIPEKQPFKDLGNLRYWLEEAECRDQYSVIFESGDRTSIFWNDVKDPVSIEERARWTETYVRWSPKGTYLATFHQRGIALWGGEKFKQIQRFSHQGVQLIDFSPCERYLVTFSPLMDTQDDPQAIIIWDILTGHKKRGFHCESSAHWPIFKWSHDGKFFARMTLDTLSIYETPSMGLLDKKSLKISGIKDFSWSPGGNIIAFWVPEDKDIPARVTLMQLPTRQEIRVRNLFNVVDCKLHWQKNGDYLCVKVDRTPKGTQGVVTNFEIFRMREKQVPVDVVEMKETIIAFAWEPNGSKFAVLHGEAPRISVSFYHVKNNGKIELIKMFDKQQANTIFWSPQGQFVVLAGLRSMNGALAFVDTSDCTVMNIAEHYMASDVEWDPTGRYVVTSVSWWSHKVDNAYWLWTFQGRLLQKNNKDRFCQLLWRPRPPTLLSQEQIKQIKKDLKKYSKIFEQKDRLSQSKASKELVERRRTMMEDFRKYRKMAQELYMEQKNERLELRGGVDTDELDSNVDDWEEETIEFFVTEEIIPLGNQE
UniProt P06730: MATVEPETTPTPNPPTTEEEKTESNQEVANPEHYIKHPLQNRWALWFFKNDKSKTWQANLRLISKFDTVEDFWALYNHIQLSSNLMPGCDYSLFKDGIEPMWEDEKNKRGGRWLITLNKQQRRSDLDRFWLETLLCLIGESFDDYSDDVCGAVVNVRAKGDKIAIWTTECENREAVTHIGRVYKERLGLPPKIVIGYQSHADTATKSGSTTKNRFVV

These are yes or no findings as the source states them, for the method shown. In cells and extracts the contact can be indirect. Some binding calls cover weakened binding; strength is not graded here.

In assay [1] the target is G9a (EHMT2), endogenous, captured by the biotinylated G9a inhibitor UNC0965 (mouse (endogenous in Raw 264.7)) (UniProt Q9Z148). As to the kind of experiment: pull-down.
The next assay deals with Flag-tagged METTL3 (UniProt Q86U44). The assay can be described thus: co-IP.
A further assay deals with HA-tagged G9a (UniProt Q96KQ7). The assay can be described thus: co-IP.
In a further assay the target is Flag-K215R METTL3 (UniProt Q86U44). The assay can be described thus: co-IP.
A further assay deals with Flag-K281R METTL3 (UniProt Q86U44). The assay can be described thus: co-IP.

With “METTL3, endogenous in Raw 264.7 macrophages (from UniProt Q8C3P7 1-580) (enzyme)”, the binding entry in assay [1] is “binds”.

Turning to eIF3b (from UniProt P55884 1-814), in the assay with Flag-tagged METTL3, the binding entry was “binds”.

Take “Flag-tagged METTL3 (from UniProt Q86U44 1-580) (enzyme)”: the binding result with HA-tagged G9a is listed as “binds”.

Regarding eIF4e (from UniProt P06730 1-217), the binding result with Flag-K215R METTL3 and with Flag-K281R METTL3 was “binds” each time.

As to “HA-tagged G9a (from UniProt Q96KQ7 1-1210) (enzyme)”, the binding result with Flag-tagged METTL3 was “binds”.
